Assay results from publication PMC7178511, “Antimicrobial Activity and DNA/BSA Binding Affinity of Polynuclear Silver(I) Complexes with 1,2-Bis(4-pyridyl)ethane/ethene as Bridging Ligands” (Bioinorganic Chemistry and Applications, 2020).

Test system: C. parapsilosis ATCC 22019
Assay: Broth microdilution MIC, C. parapsilosis
Format: cell-based, Candida parapsilosis
Settings: C. parapsilosis versus MRC-5 cells
Description: Stock solutions of bpa, bpe, and silver(I) complexes 1–3 were prepared fresh in DMSO (50 mg/mL) and kept at 4°C prior to use. Susceptibility testing of Candida spp. (C. albicans ATCC 10231, C. krusei ATCC 6258, C. parapsilosis ATCC 22019, and C. glabrata ATCC 2001) was performed according to CLSI broth microdilution guidelines (Clinical and Laboratory Standards Institute, Reference Method for Broth Dilution Antifungal Susceptibility Testing of Yeasts—Third Edition: Approved Standard M27-A3; Clinical and Laboratory Standards Institute, Reference Method for Broth Dilution Antifungal Susceptibility Testing of Yeasts: Fourth Informational Supplement M27-S4), in RPMI 1640 medium (Roswell Park Memorial Institute medium) containing 2% glucose (w/v). The highest tested concentration was 500 μg/mL, and the inocula were 1^·\10^5 colony forming units (cfu)/mL.

O=[N+]([O-])[O-].[Ag+].c1cc(CCc2ccncc2)ccn1 [Complex 1, {[Ag(bpa)]NO3}n]
selectivity index: 12.9

C(=C\c1ccncc1)/c1ccncc1.O=S(=O)([O-])C(F)(F)F.[Ag+] [Complex 3, {[Ag(bpe)]CF3SO3}n]
selectivity index: 12.9
